The record followed here is US12377171B2, “Methods for treating and diagnosing blinding eye diseases” (Translatum Medicus Inc., priority 2012, dated 2025).

Entries after “also recorded” stand apart in the source; their conditions may differ.

The data set deals with RPE/outer retina. As to the kind of experiment: DNIRA: delayed fluorescence imaging by cSLO after systemic dye injection. The settings on record: single IV ICG injection. In kind it is in vivo, Sprague Dawley rats.

As to `CC1(C)C(/C=C/C=C/C=C/C=C2\N(CCCCS(=O)(=O)[O-])c3ccc4ccccc4c3C2(C)C)=[N+](CCCCS(=O)(=O)[O-])c2ccc3ccccc3c21.[Na+]` [ICG], the “delayed NIR fluorescence (DNIRA, 795/810 nm)” value is “delayed and persistent fluorescence; also recorded: little appreciable difference between days 3 and 28 post-injection; also recorded: remains strong and distributed throughout the fundus out to 28 days; also recorded: persisted largely unchanged out to 21 days” (high dose 5 mg/kg, 5 mg/kg); “faded; also recorded: gradual fading from 48 hours to 21 days post-injection” (low dose 0.35 mg/kg, 0.35 mg/kg).
